Chains of the proteins cited; added tags and fusions are not shown. Residues count along the entry.
UniProt Q13616, 411-776 limits assumed, chain 1 of 2: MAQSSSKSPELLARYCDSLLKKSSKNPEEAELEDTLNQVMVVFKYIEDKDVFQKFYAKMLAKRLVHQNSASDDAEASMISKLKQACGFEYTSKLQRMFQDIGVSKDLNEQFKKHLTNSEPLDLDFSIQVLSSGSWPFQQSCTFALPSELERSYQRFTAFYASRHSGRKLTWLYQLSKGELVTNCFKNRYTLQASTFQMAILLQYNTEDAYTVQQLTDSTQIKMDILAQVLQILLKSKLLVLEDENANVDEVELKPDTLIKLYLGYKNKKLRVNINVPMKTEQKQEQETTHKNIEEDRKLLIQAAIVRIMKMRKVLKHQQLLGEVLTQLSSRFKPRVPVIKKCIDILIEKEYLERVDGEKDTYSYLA
hCul1^ctd-hRbx1, UniProt P62877, 5-108 limits assumed, chain 2 of 2: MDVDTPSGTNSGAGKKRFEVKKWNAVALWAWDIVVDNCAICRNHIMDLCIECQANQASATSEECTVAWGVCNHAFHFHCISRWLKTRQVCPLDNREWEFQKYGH

In patent publication US20140179593A1 (published 2014):

Assays:
[1] = biological target: T1, hCul1^ctd-hRbx1 (Homo sapiens, UniProt Q13616 411-776; P62877 5-108, limits assumed); assay: ITC, hDcn1^P injected into hCul1^ctd-hRbx1
T1 construct: Complex of the C-terminal domain of human Cul1 with Rbx1; also called hCul1^ctd-Rbx1; Cul1^CTD-Rbx1
Protocol: (§1) Protein samples were buffer matched by desalting over a NAP-5 column (GE Healthcare) into 50 mM Hepes, 125 mM NaCl, 1 mM BME, pH 7.0 (ITC buffer). Peptides were dissolved by weight to a final concentration of 10 mM in ITC buffer and diluted further in ITC buffer as required for the experiments. […] The peptide ligands (4 mM) were constantly injected (1.5 μl). The interval time between each injection was 3 minutes and the duration of each injection was 3 seconds. […] Peptide ligands (250 μM) were constantly injected (2.5 μl). The interval time between each injection was three minutes and the duration of each injection was 5 seconds. […] The interval time between each injection was 3 minutes and the duration of each injection was 5 seconds. Obtained spectra were evaluated using Origin (V 7.0) to determine heats of binding and Kd values.

[2] = biological target: T1, hCul1^ctd-hRbx1; assay: ITC; the reference value of the yeast pair is cited
Protocol: as §1

Kd [1]: 1000 nM
fold worse Kd than the yeast counterparts (yCul1^C+-yRbx1:yDcn1^P) [2]: ~30 fold
B1: hDcn1^P (residues 62 to the C-terminal residue 259 of hDcn1, aka SCCRO or DCUN1D1) (other)
chain: RKKLEQLYNRYKDPQDENKIGIDGIQQFCDDLALDPASISVLIIAWKFRAATQCEFSKQEFMDGMTELGCDSIEKLKAQIPKMEQELKEPGRFKDFYQFTFNFAKNPGQKGLDLEMAIAYWNLVLNGRFKFLDLWNKFLLEHHKRSIPKDTWNLLLDFSTMIADDMSNYDEEGAWPVLIDDFVEFARPQIAGTKSTTV
notes: Expressed as a GST fusion in E. coli; GST released by TEV protease; also called DCUN1D1^P; PONY domain of hDcn1
